This note sets out measurements from publication PMC10059083, “Design, Synthesis, and Biological Evaluation of Novel Hydroxamic Acid-Based Organoselenium Hybrids” (Pharmaceuticals, 2023).

In brackets after ≈: the same amount, converted by molar mass.

One assay concerns S. aureus. Nature of the assay: MIC by microdilution, S. aureus. It counts as cell-based. Particulars: Staphylococcus aureus; microdilution method. The text has this: (§1) The encouraging antitumor properties of the OSe compounds motivated us to evaluate their corresponding antimicrobial activities against the C. albicans fungal strain, S. aureus Gram-positive bacteria, and E. coli Gram-negative bacteria. Therefore, we applied the agar diffusion and minimum inhibitory concentration (MIC) methods using clotrimazole antifungal and ampicillin antibacterial drugs as standards.
(§2) The products’ antimicrobial properties were examined according to the previously reported method, via agar well diffusion assay against E. coli, S. aureus, and C. albicans. A microdilution method was also used to record MICs (M), following the previously reported procedure. Experimental details can be found in the Supplementary Materials.
(§3) Briefly, a concentration of 1 mM was prepared for each compound by dissolving in DMSO. Paper discs of standard size […] were sterilized in an autoclave and soaked in 9 µL of the test compounds, and placed in the Petri dishes, which in turn contain a nutrient media (agar 9 g, peptone 5 g, and beef extract 3 g) seeded with the dedicated strain. Incubation lasted for 13 h at 36 0C. […]

In the next assay the test system is E. coli. Nature of the assay: MIC by microdilution, E. coli. The assay is classed as cell-based. The following applies: Escherichia coli; microdilution method.
From the text: as §1, §2, §3

For the molecule `CC1(C)S[C@@H]2[C@H](NC(=O)[C@H](N)c3ccccc3)C(=O)N2[C@H]1C(=O)O` [Ampicillin, ampicillin, reference compound], the MIC amounted to 1 µM (≈ 0.349 µg/mL) with S. aureus and 0.5 µM (≈ 0.175 µg/mL) in the assay on E. coli.
